From article PMC6269693 (Molecules, 2013)

Test: general procedure: peptide synthesis; PyBOP/DIPEA or NHS activated ester
Details: conjugation step

Substance: E[c(RGDyK)]2
- conjugation yield: 50%
- final HPLC purity (254 nm): 96.8%
